Test results as given in PubChem BioAssay AID602313 (National Center for Advancing Translational Sciences (NCATS), 2012).
Among all 390,000 compounds or so, about 760 (0.19%) were called active. The shares of active, inactive and inconclusive entries below differ from those in the screen. Calls come from the whole dose curve; as a rule, active = well fitted inhibition curve with a large enough effect; inconclusive = small, poorly fitted or top-dose-only effect; inactive = flat fitted curve, though single readings scatter. Potencies of inconclusive entries are doubtful fits and often do not repeat.
Potency is the fitted concentration of half-maximal effect.

Assay: qHTS for Inhibitors of Vif-A3F Interactions: qHTS; note: nearly all actives have a fitted effect of over 65% in size; for activity, negative = active: % of control where 0% means no effect
Settings: HeLa A3F-eYFP + Vif (tagged APOBEC3F with the HIV-1 protein that degrades it), YFP fluorescence increase; series mostly up to 46.1 µM; activity, negative = active: at the top concentration
In short: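 HeLa cells stably expressing Vif plus C-terminally eYFP-tagged A3F were seeded, incubated overnight at 37 deg C, dosed with compound, incubated overnight again at 37 deg C. Yellow fluorescence (Ex 488/Em 500-530) reported blocked Vif-mediated A3F-eYFP degradation.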
With O=C(Nc1ccc(F)c(Cl)c1)N1CC=C(c2c[nH]c3ccccc23)CC1 the Potency was inconclusive: 31.6 µM [inhibitor, single point].
For O=C(Nc1ccc(NC(=O)c2sc3ccccc3c2Cl)cc1Cl)c1ccco1, the Potency was inconclusive: 14.1 µM [inhibitor, single point].
With Oc1c(CN2CCN(c3ccc(F)cc3)CC2)cc(Cl)c2cccnc12 the Potency was inconclusive: 3.55 µM [inhibitor, partial curve, poor fit].
In the case of COc1ccc(C(=O)NC(=S)N2CCN(c3ccccc3OC)CC2)cc1, the Potency is reported as inconclusive: 17.8 µM [inhibitor, single point].
With Cc1nn(Cc2c(F)cccc2Cl)c(=O)c2ccccc12 the Potency was inconclusive: 2.24 µM [inhibitor, partial curve, poor fit].
With Cc1ccc(CNC(=O)Cc2cn(C)c3ccccc23)cc1 the Potency was inconclusive: 3.55 µM [inhibitor, single point].
In the case of O=C(NNS(=O)(=O)c1ccc(F)cc1)c1ccc([N+](=O)[O-])cc1Cl, the Potency is reported as inconclusive: 1.78 µM [inhibitor, partial curve, poor fit].
With CCc1ccc(OCC(=O)NNC(=O)c2ccc(NC(=O)C3CC3)cc2)cc1 the Potency was inconclusive: 5.62 µM [inhibitor, single point].
In the case of COc1ccc(C2c3ccc(O)cc3Oc3ncn(Cc4ccccc4)c(=N)c32)cc1OC (configuration not stated), the Potency is reported as inconclusive: 35.5 µM [inhibitor, single point].
In the case of COc1cccc(CC(=O)OCC(=O)NCc2ccc3c(c2)OCO3)c1, the Potency is reported as inconclusive: 17.8 µM [inhibitor, partial curve, poor fit].
In the case of Cc1c(NC(=O)COC(=O)c2ccc(F)c(S(=O)(=O)N3CCOCC3)c2)c(=O)n(-c2ccccc2)n1C, the Potency is reported as inconclusive: 1.26 µM [inhibitor, partial curve, poor fit].
With CCS(=O)(=O)N1Cc2ccccc2CC1C(=O)N(C)Cc1ccc(OC)cc1OC (configuration not stated) the Potency was inconclusive: 35.5 µM [inhibitor, single point].
For C=CCN1C=CC(=CC=C(C#N)C#N)C=C1, the Potency was inconclusive: 22.4 µM [inhibitor, partial curve, poor fit].
In the case of Cc1c(C(=O)Nc2ccc(C(C)C)cc2)sc2nc3n(c(=O)c12)CCC3, the Potency is reported as inconclusive: 28.2 µM [inhibitor, single point].
For C=CCNc1sc(C(=O)c2ccc(C)cc2)c(N)c1C#N, the Potency was inconclusive: 35.5 µM [inhibitor, single point].
In the case of CNC(=S)N/N=C(\C)c1ccc(Cl)s1, the Potency is reported as active: 7.94 µM.
For Cc1ccc2sc(C)[n+](CCO)c2c1, the Potency was inconclusive: 14.1 µM [inhibitor, single point].
In the case of CCOc1cc(/C=N/Nc2nncc(-c3ccccc3)n2)ccc1O, the Potency is reported as inconclusive: 14.1 µM [inhibitor, single point].
With COc1ccc(C(=O)C(O)C(c2ccc(C)cc2)N2CCOCC2)cc1OC (configuration not stated) the Potency was inconclusive: 6.31 µM [inhibitor, single point].
In the case of Cc1ccc(S(=O)(=O)NC(C(=O)N2CCOCCOCCOCCOCC2)C(C)C)cc1 (configuration not stated), the Potency is reported as inconclusive: 3.55 µM [inhibitor, single point].
With CCN1/C(=C/C(C)=C/c2sc3ccccc3[n+]2CC)Sc2ccccc21 the Potency was inconclusive: 5.62 µM [inhibitor, single point].
In the case of CC(=O)Nc1cccc(C(=O)OCC(=O)NC(=O)c2ccccc2)c1, the Potency is reported as inconclusive: 6.31 µM [inhibitor, single point].
With Cc1ccc(CNc2ccc3c(c2)OCO3)cc1 the Potency was active: 25.1 µM.
For Cc1ccc(-n2c(=O)cc(N3CCN(c4ccccc4Cl)CC3)[nH]c2=O)cc1, the “activity, negative = active” value was inactive: -10%.
In the case of Cc1ccc2nc(/C(C#N)=C/c3ccc(-c4cccc([N+](=O)[O-])c4)o3)[nH]c2c1, the Potency is reported as active: 10 µM.
With Cc1ccc(C)c(N2CCN(c3c(CN4CCCC4)c(=O)oc4ccccc34)CC2)c1 the “activity, negative = active” value was inactive: 1.86%.
In the case of CCCCSc1nc2sc3c(c2c(=O)n1-c1ccc(OC)cc1)CCN(C)C3, the Potency is reported as inconclusive: 35.5 µM [inhibitor, single point].
For O=C(N/N=C/c1ccc(-c2ccc([N+](=O)[O-])cc2)o1)[C@H]1C[C@@H]1c1ccccc1, the Potency was active: 7.08 µM.
For Cc1cc(C)cc(OCC(=O)Nc2nc(-c3ccccn3)cs2)c1, the Potency was inconclusive: 35.5 µM [inhibitor, single point].
For CN(C(=O)COC(=O)/C=C/c1ccc(Cl)c(Cl)c1)c1c(N)n(Cc2ccccc2)c(=O)[nH]c1=O, the Potency was inconclusive: 35.5 µM [inhibitor, single point].
In the case of O=C(Nc1nc(=O)c2ccccc2s1)c1ccc(F)cc1, the “activity, negative = active” value is reported as inactive: -7.7%.
With COc1ccc(CC(=O)OCC(=O)NCc2ccc(F)cc2)cc1 the Potency was inconclusive: 3.16 µM [inhibitor, single point].
For COc1ccc(/C=N/Nc2nc(-c3ccc(C)cc3)c(NC(C)=O)s2)cc1, the Potency was inconclusive: 6.31 µM [inhibitor, single point].
With Cc1ccc(CC2S/C(=N/N=C/c3ccco3)NC2=O)cc1 (configuration not stated) the Potency was inconclusive: 35.5 µM [inhibitor, partial curve, poor fit].
For CCCCCn1nc(-c2ccccc2)c2nc3ccccc3nc21, the Potency was inconclusive: 20 µM [inhibitor, partial curve, poor fit].
For Cn1c(N2CCN(c3ccccn3)CC2)nc2c1c(=O)n(Cc1ccc(Cl)cc1)c(=O)n2C, the “activity, negative = active” value was inactive: -5.45%.
For COc1cc(/C=C/c2ccc3c(Br)cc(Br)c(O)c3n2)ccc1O, the Potency was inconclusive: 35.5 µM [inhibitor, single point].
For CCc1nnc(NC(=O)[C@@H](NC(=O)c2ccc(C(C)(C)C)cc2)C(C)C)s1, the “activity, negative = active” value was inactive: 6.61%.
For CC(C)OC(=O)Nc1ccc2c(c1)N(C(=O)CCN1CCOCC1)c1ccccc1CC2, the Potency was inconclusive: 3.55 µM [inhibitor, partial curve, poor fit].
In the case of O=[N+]([O-])c1cc(Cl)c2cccnc2c1O, the Potency is reported as inconclusive: 5.01 µM [inhibitor, full curve, poor fit].
In the case of NS(=O)(=O)c1ccc(-c2ccc(/C=N/NC(=O)c3ccc([N+](=O)[O-])cc3)o2)cc1, the Potency is reported as inconclusive: 17.8 µM [inhibitor, single point].
In the case of CC(C)(C)C(=O)c1sc2nc(-c3cccs3)cc(C(F)(F)F)c2c1N, the Potency is reported as active: 2.82 µM.
With CCN(CC)S(=O)(=O)c1ccc(N2CCN(C)CC2)c(NC(=O)Nc2ccc(C)cc2)c1 the Potency was inconclusive: 3.55 µM [inhibitor, partial curve, poor fit].
With Cc1nnc(NC(=O)c2ccc(S(=O)(=O)N3CCCCC3C)cc2)o1 (configuration not stated) the Potency was inconclusive: 35.5 µM [inhibitor, single point].
In the case of O=C(NC(=S)N1CCN(c2ccccn2)CC1)c1ccco1, the Potency is reported as inconclusive: 22.4 µM [inhibitor, single point].
For CC(NO)C(C)(C)NO (configuration not stated), the “activity, negative = active” value was inactive: -7.28%.
With CCN(CC)c1ccc2cc(C=O)c(=O)oc2c1 the Potency was inconclusive: 8.91 µM [inhibitor, partial curve].
In the case of COc1ccc(CNC(=S)NC2CCCCC2)cc1, the “activity, negative = active” value is reported as inactive: -4.55%.
For O=c1c2cc(Br)ccc2[nH]c(=S)n1Cc1ccccn1, the Potency was inconclusive: 31.6 µM [inhibitor, single point].
In the case of Cn1c(=O)c2[nH]c(C3CC=CCC3)nc2n(C)c1=O (configuration not stated), the “activity, negative = active” value is reported as inactive: -11.1%.
With Nc1ccc2nc(-c3ccccc3)cnc2c1 the Potency was inconclusive: 15.8 µM [inhibitor, partial curve, poor fit].
In the case of O=C(OCC(=O)N1CCN(C(=O)c2ccco2)CC1)c1cc(-c2ccccc2)nc2ccccc12, the “activity, negative = active” value is reported as inactive: 0.224%.
For Cc1ccc(-c2csc(NC(=O)c3cccc(C)c3)c2C(=O)O)cc1, the “activity, negative = active” value was inactive: 2.35%.
For O=C(CN1C(=O)S/C(=C/c2ccc(N3CCOCC3)cc2)C1=O)N1CCOCC1, the Potency was inconclusive: 35.5 µM [inhibitor, single point].
For Cc1ccc(CSCC2Nc3ccc(C(=O)N4CCN(c5ccc(F)cc5)CC4)cc3NC2=O)cc1 (configuration not stated), the Potency was inconclusive: 12.6 µM [inhibitor, partial curve, poor fit].
For Cc1ccc(OCCN2CCN(c3ncnc4sc(C)c(C)c34)CC2)cc1, the “activity, negative = active” value was inactive: -2.7%.
In the case of COC(=O)c1sc(NC(=O)COc2ccc(C)cc2)nc1C, the “activity, negative = active” value is reported as inactive: -6.12%.
With COc1ccccc1NC(=O)CSc1nnnn1C1CCCC1 the Potency was inconclusive: 11.2 µM [inhibitor, single point].
In the case of Cc1ccc(NC2=NCC(=O)N2C2CCCC2)cc1C, the Potency is reported as inconclusive: 11.2 µM [inhibitor, partial curve].
In the case of COc1cccc(CNC(=O)COC(=O)CCCNC(=O)c2ccc(Cl)cc2)c1, the Potency is reported as inconclusive: 11.2 µM [inhibitor, partial curve, poor fit].
With O=C(CNC(=O)c1ccco1)NC1CCCCCC1 the Potency was inconclusive: 3.16 µM [inhibitor, full curve].
With COc1ccc(C(=O)N[C@H](C(=O)NCc2ccc(C)cc2)C(C)C)cc1 the Potency was inconclusive: 6.31 µM [inhibitor, single point].
For CCc1nc2sc3c(c2c(=O)n1CCO)CCC3, the Potency was inconclusive: 22.4 µM [inhibitor, single point].
With COc1cccc2sc3ccc(NCCC4CCCN4C)cc3c(=O)c12 (configuration not stated) the Potency was inconclusive: 25.1 µM [inhibitor, single point].
With O=C(O)C1Nc2c(O)cc(Cl)c([N+](=O)[O-])c2C2C=CCC12 (configuration not stated) the “activity, negative = active” value was inactive: -6.25%.
For CCCN(CCC)C(=O)Cn1c(=O)n(-c2ccc(C)c(C)c2)c(=O)c2c3c(sc21)CCCCC3, the “activity, negative = active” value was inactive: -3.31%.
For Cc1cc(C)c2cc(CN(CCO)C(=O)NC3CCCCC3)c(=O)[nH]c2c1, the “activity, negative = active” value was inactive: 0.82%.
